Laboratory results reported in the supplement of paper PMC9433722.
Counter-ions that a name gives are not always drawn. The list shows a part of the results. Most values come without repeats; read them as rough.

Columns and labels:
[1] = test system: Saos-2; assay: cell viability (CCK-8) relative to DMSO control (% of control); higher = less cytotoxic; conditions: 10 µM; 48 h
[2] = test system: U2OS; assay: as above; conditions: 10 µM; 48 h

Row | Structure (SMILES) | cell viability [1] | cell viability [2]
1 | Clc1ccc(COC(Cn2ccnc2)c2ccc(Cl)cc2Cl)c(Cl)c1 (stereo not drawn) [Miconazole nitrate] | 112 | 143
2 | C[C@@H]1C[C@H]2[C@@H]3CCC4=CC(=O)C=C[C@]4(C)[C@@]3(F)[C@@H](O)C[C@]2(C)[C@H]1C(=O)CO [Desoximetasone] | 112 | 95.3
3 | Cc1ccc(O)c([C@H](CCN(C(C)C)C(C)C)c2ccccc2)c1 [Tolterodine Tartrate] | 101 | 110
4 | CS(=O)(=O)CCNCc1ccc(-c2ccc3ncnc(Nc4ccc(OCc5cccc(F)c5)c(Cl)c4)c3c2)o1 [Lapatinib Ditosylate] | 60.8 | 82.9
